Measurements published in patent publication US20110229572A1, “DELIVERY OF DRUG COMBINATIONS” (BIOCOMPATIBLES UK Limited, priority 2007, published 2011).
For at least one compound, name, drawing or mass did not settle the structure.

Columns and labels:
[1] = Rapamycin and doxorubicin loading into high AMPS beads by two methods; assay type: physicochemical
Procedure: Unloaded high AMPS bead slurry 1 ml was loaded with doxorubicin solution (5 ml of 10.07 mg/ml, target loading 50 mg/ml Bead) overnight. The doxorubicin-loaded beads were washed with 1 ml DMSO 5 times to remove extra water, and 1 ml 60 mg/mL rapamycin DMSO solution was mixed with the doxorubicin beads for about 30 min. Subsequently, following removal of extra rapamycin DMSO solution, the beads were washed with 5 ml saline until no white drug particles were observed.
1 ml Bead slurry was washed with 1 mL DMSO 5 times and mixed with 1 ml 60 mg/ml rapamycin DMSO solution for 30 min. The loaded beads were then washed with 5 ml saline until no further white drug particles were observed. […]
Doxorubicin loading test: The doxorubicin loading was measured by depletion method in either water or DMSO solution. The loading solution was taken and diluted 10 times and measured by UV at 483 nm to determine the concentration of doxorubicin residue in solution. […] The concentration of rapamycin was determined by UV at 279 nm. […]
Doxorubicin loss determination: The doxorubicin loss during DMSO washing of loaded beads before further loading of rapamycin (Method 2) was determined by measuring the accumulated DMSO washing solution in a volumetric flask at 483 nm. […]
Rapamycin and doxorubicin standard curve: The maximum absorbance of rapamycin is at wavelength 279 nm, which is overlapped with doxorubicin absorbance. […]

[2] = Doxorubicin and rapamycin elution from loaded beads to 200 mL PBS; assay type: physicochemical; conditions: after 30 hr elution, 25° C., beads of both methods

For CO[C@H]1C[C@@H]2CC[C@@H](C)[C@@](O)(O2)C(=O)C(=O)N2CCCC[C@H]2C(=O)O[C@H]([C@H](C)C[C@@H]2CC[C@@H](O)[C@H](OC)C2)CC(=O)[C@H](C)/C=C(\C)[C@@H](O)[C@@H](OC)C(=O)[C@H](C)C[C@H](C)/C=C/C=C/C=C/1C [rapamycin], the rapamycin loading efficiency ([1]; 1st step of Method 1) was “about 47.5%”, the rapamycin loading efficiency ([1]; 2nd step of Method 2 (doxorubicin-loaded beads)) was 62.0% and the rapamycin released [2] was “about 33%”.
